Experimental data from patent publication US20080248024A1, “THERAPEUTIC AGENT FOR CANCER, INFLAMMATION, AND AUTO-IMMUNE DISEASE CONTAINING INHIBITOR OF ZINC FINGER PROTEIN 91” (Korea Research Institute of Bioscience and Biotechnology, priority 2007, published 2008).
Results are given in words; binding and its absence hold for the method and conditions named. For some assays here: Binding seen in cells or lysates may run through a third protein. Some entries that bind do so weakly or less than the wild type. Tags and fused reporters may be left off the sequences shown.

Amino acid sequences for entries named in this document (tags omitted).
UniProt P40337: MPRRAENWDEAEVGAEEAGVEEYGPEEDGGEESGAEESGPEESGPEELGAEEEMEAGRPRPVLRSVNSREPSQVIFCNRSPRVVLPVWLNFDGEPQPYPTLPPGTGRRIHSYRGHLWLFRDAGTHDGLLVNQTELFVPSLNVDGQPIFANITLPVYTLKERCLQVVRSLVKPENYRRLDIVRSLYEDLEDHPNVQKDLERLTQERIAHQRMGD
UniProt Q99558: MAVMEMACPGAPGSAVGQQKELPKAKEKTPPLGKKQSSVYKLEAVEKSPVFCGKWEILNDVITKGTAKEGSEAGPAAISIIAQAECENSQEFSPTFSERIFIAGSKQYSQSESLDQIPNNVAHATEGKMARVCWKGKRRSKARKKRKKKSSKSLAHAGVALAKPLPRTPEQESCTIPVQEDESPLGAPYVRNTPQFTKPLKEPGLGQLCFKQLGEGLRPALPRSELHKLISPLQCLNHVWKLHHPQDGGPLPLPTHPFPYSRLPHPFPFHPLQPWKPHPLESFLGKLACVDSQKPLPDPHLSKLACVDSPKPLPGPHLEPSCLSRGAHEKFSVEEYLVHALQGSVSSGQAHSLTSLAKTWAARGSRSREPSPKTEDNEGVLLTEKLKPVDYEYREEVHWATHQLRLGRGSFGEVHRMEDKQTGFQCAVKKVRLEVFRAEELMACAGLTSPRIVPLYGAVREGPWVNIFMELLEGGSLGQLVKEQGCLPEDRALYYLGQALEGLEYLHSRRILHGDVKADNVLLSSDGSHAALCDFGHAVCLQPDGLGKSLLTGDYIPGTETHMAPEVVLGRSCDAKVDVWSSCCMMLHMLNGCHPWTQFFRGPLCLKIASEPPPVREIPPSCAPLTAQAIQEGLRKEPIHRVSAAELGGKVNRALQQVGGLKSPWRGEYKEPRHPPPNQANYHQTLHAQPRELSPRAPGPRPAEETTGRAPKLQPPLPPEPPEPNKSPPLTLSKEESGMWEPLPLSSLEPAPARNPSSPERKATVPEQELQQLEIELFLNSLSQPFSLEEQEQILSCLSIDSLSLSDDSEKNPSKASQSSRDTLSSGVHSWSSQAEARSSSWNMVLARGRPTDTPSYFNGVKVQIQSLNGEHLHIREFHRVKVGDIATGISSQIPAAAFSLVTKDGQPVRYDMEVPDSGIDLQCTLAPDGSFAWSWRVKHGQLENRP

How the values were obtained:
[1] = biological target: HA-VHL (Von Hippel-Lindau protein) (UniProt P40337); assay: co-immunoprecipitation (FIG. 34), told in the description
[2] = biological target: myc-NIK (NF-kB-inducing kinase, NIK/MAP3K14) (UniProt Q99558); assay: co-immunoprecipitation (FIG. 22), told in the description
[3] = biological target: T1, HA-TRAF2 (TNF-receptor-associated factor 2) (UniProt Q12933); assay: as above
T1 sequence (looked up): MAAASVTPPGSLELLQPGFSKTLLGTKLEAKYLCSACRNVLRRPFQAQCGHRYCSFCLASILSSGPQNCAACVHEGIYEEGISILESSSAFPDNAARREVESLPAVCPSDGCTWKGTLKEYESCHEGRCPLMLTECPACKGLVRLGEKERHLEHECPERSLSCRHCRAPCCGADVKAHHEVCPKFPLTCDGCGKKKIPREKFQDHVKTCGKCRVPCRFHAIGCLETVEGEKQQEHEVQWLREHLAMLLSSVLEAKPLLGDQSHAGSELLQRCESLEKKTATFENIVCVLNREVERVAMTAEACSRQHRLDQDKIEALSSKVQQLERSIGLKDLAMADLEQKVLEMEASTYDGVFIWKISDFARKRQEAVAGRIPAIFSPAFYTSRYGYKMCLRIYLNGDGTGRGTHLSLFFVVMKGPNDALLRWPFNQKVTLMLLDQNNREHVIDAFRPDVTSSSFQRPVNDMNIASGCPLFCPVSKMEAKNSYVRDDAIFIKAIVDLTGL

[4] = biological target: HA-VHL (Von Hippel-Lindau protein) (UniProt P40337); assay: figure legend: IP anti-FLAG and anti-HA from HEK293 cells, Western anti-HA and anti-FLAG
[5] = biological target: myc-NIK (NF-kB-inducing kinase, NIK/MAP3K14) (UniProt Q99558); assay: IP with ZFP91 from HEK293 cells over-expressing ZFP91, NIK and TRAF2, told in the description
[6] = biological target: T1, HA-TRAF2 (TNF-receptor-associated factor 2); assay: as above
[7] = biological target: T1, HA-TRAF2 (TNF-receptor-associated factor 2); assay: IP of ZFP91 (anti-FLAG) from HEK293 cells over-expressing ZFP91, NIK and TRAF2; Western anti-HA
[8] = biological target: myc-NIK (NF-kB-inducing kinase, NIK/MAP3K14) (UniProt Q99558); assay: figure legend: IP with anti-FLAG, anti-NIK or anti-HA antibody from HEK293 cells, Western blotting
[9] = biological target: T1, HA-TRAF2 (TNF-receptor-associated factor 2); assay: as above
[10] = biological target: myc-NIK (NF-kB-inducing kinase, NIK/MAP3K14) (UniProt Q99558); assay: co-immunoprecipitation from HEK293 cells over-expressing myc-NIK and FLAG-ZFP91, Western blotting
[11] = biological target: myc-NIK (NF-kB-inducing kinase, NIK/MAP3K14) (UniProt Q99558); assay: IP of ZFP91 (anti-FLAG) from HEK293 cells over-expressing ZFP91, NIK and TRAF2; Western anti-NIK
[12] = biological target: HA-VHL (Von Hippel-Lindau protein) (UniProt P40337); assay: IP with anti-FLAG, anti-HA or anti-GAL-4 antibody from HEK293 cells, Western blotting, told in the description
[13] = biological target: T1, HA-TRAF2 (TNF-receptor-associated factor 2); assay: co-immunoprecipitation from HEK293 cells over-expressing HA-TRAF2 and FLAG-ZFP91, Western blotting
[14] = biological target: HA-VHL (Von Hippel-Lindau protein) (UniProt P40337); assay: co-immunoprecipitation from HEK293T cells transfected with FLAG-ZFP91, HA-VHL and GAL4-HIF-1α in combination, Western blotting

Measured: binding

B1: FLAG-ZFP91 (Zinc Finger Protein 91 whose N-terminal was tagged with FLAG) (protein, human, UniProt Q96JP5 1-570, looked up, not shown: small tags and cut ends)
chain: MPGETEEPRPPEQQDQEGGEAAKAAPEEPQQRPPEAVAAAPAGTTSSRVLRGGRDRGRAAAAAAAAAVSRRRKAEYPRRRRSSPSARPPDVPGQQPQAAKSPSPVQGKKSPRLLCIEKVTTDKDPKEEKEEEDDSALPQEVSIAASRPSRGWRSSRTSVSRHRDTENTRSSRSKTGSLQLICKSEPNTDQLDYDVGEEHQSPGGISSEEEEEEEEEMLISEEEIPFKDDPRDETYKPHLERETPKPRRKSGKVKEEKEKKEIKVEVEVEVKEEENEIREDEEPPRKRGRRRKDDKSPRLPKRRKKPPIQYVRCEMEGCGTVLAHPRYLQHHIKYQHLLKKKYVCPHPSCGRLFRLQKQLLRHAKHHTDQRDYICEYCARAFKSSHNLAVHRMIHTGEKPLQCEICGFTCRQKASLNWHMKKHDADSFYQFSCNICGKKFEKKDSVVAHKAKSHPEVLIAEALAANAGALITSTDILGTNPESLTQPSDGQGLPLLPEPLGNSTSGECLLLEAEGMSKSYCSGTERVSLMADGKIFVGSGSSGGTEGLVMNSDILGATTEVLIEDSDSAGP
binds: [1] | [2] | [3] | [4] | [5] | [6] | [7] | [8] | [9] | [10] | [11] | [12] | [13] | [14]
